PMC5740495
Results are given in words; binding and its absence hold for the method and conditions named. Binding seen in cells or lysates may run through a third protein. These calls come from enrichment with a bait or labelling near it, and not all partners need be listed.

Target: XPO1 (human), O14980
Test: proximity labelling; BioID, large-scale, direct identification of biotinylated peptides: same NTR-BirA* lines; biotinylated peptides eluted from streptavidin beads with 80% ACN, 20% TFA after the on-bead digest, MS
Conditions: remark: other sources report otherwise

B1: NUP153, P49790 1-1475 (protein)
chain: MASGAGGVGGGGGGKIRTRRCHQGPIKPYQQGRQQHQGILSRVTESVKNIVPGWLQRYFNKNEDVCSCSTDTSEVPRWPENKEDHLVYADEESSNITDGRITPEPAVSNTEEPSTTSTASNYPDVLTRPSLHRSHLNFSMLESPALHCQPSTSSAFPIGSSGFSLVKEIKDSTSQHDDDNISTTSGFSSRASDKDITVSKNTSLPPLWSPEAERSHSLSQHTATSSKKPAFNLSAFGTLSPSLGNSSILKTSQLGDSPFYPGKTTYGGAAAAVRQSKLRNTPYQAPVRRQMKAKQLSAQSYGVTSSTARRILQSLEKMSSPLADAKRIPSIVSSPLNSPLDRSGIDITDFQAKREKVDSQYPPVQRLMTPKPVSIATNRSVYFKPSLTPSGEFRKTNQRIDNKCSTGYEKNMTPGQNREQRESGFSYPNFSLPAANGLSSGVGGGGGKMRRERTRFVASKPLEEEEMEVPVLPKISLPITSSSLPTFNFSSPEITTSSPSPINSSQALTNKVQMTSPSSTGSPMFKFSSPIVKSTEANVLPPSSIGFTFSVPVAKTAELSGSSSTLEPIISSSAHHVTTVNSTNCKKTPPEDCEGPFRPAEILKEGSVLDILKSPGFASPKIDSVAAQPTATSPVVYTRPAISSFSSSGIGFGESLKAGSSWQCDTCLLQNKVTDNKCIACQAAKLSPRDTAKQTGIETPNKSGKTTLSASGTGFGDKFKPVIGTWDCDTCLVQNKPEAIKCVACETPKPGTCVKRALTLTVVSESAETMTASSSSCTVTTGTLGFGDKFKRPIGSWECSVCCVSNNAEDNKCVSCMSEKPGSSVPASSSSTVPVSLPSGGSLGLEKFKKPEGSWDCELCLVQNKADSTKCLACESAKPGTKSGFKGFDTSSSSSNSAASSSFKFGVSSSSSGPSQTLTSTGNFKFGDQGGFKIGVSSDSGSINPMSEGFKFSKPIGDFKFGVSSESKPEEVKKDSKNDNFKFGLSSGLSNPVSLTPFQFGVSNLGQEEKKEELPKSSSAGFSFGTGVINSTPAPANTIVTSENKSSFNLGTIETKSASVAPFTCKTSEAKKEEMPATKGGFSFGNVEPASLPSASVFVLGRTEEKQQEPVTSTSLVFGKKADNEEPKCQPVFSFGNSEQTKDENSSKSTFSFSMTKPSEKESEQPAKATFAFGAQTSTTADQGAAKPVFSFLNNSSSSSSTPATSAGGGIFGSSTSSSNPPVATFVFGQSSNPVSSSAFGNTAESSTSQSLLFSQDSKLATTSSTGTAVTPFVFGPGASSNNTTTSGFGFGATTTSSSAGSSFVFGTGPSAPSASPAFGANQTPTFGQSQGASQPNPPGFGSISSSTALFPTGSQPAPPTFGTVSSSSQPPVFGQQPSQSAFGSGTTPNSSSAFQFGSSTTNFNFTNNSPSGVFTFGANSSTPAASAQPSGSGGFPFNQSPAAFTVGSNGKNVFSSSGTSFSGRKIKTAVRRRK
- binding: binds
